In US6433001B1, “1H-indole-3-glyoxylamide sPLA2 inhibitors” (Eli Lilly and Company, priority 1994, dated 2002):
Some results were stated once for a whole list of compounds, not compound by compound.

Molecular target: T1, Human Secreted Phospholipase A2 (Homo sapiens, UniProt P14555)
T1 sequence (P14555 21-144): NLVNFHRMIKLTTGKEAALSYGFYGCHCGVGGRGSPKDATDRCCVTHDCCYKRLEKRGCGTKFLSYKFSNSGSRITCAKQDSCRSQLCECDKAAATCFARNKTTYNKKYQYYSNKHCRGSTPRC
Experiment: chromogenic assay for inhibitors of recombinant human secreted phospholipase A2
Format: biochemical
Conditions: comment on Table I
Description: The following chromogenic assay procedure was used to identify and evaluate inhibitors of recombinant human secreted phospholipase A2. The assay described herein has been adapted for high volume screening using 96 well microtiter plates.
Adjust pH to 4.5 with acetic acid
DTNB—5,5′-dithiobis-2-nitrobenzoic acid
RACEMIC DIHEPTANOYL THIO—PC
racemic 1,2-bis(heptanoylthio)-1,2-dideoxy-sn-glycero-3-phosphorylcholine
TRITON X-100™ prepare at 6.249 mg/ml in reaction buffer to equal […].
A measured volume of racemic dipheptanoyl thio PC supplied in chloroform at a concentration of 100 mg/ml is taken to dryness and redissolved in 10 millimolar TRITON X-100™ nonionic detergent aqueous solution.
Reaction Buffer is added to the solution, then DTNB to give the Reaction Mixture.
The reaction mixture thus obtained contains 1 mM diheptanoly thio-PC substrate, 0.29 mm Triton X-100™ detergent, and 0.12 mm DTMB in a buffered aqueous solution at pH 7.5.
1. Add 0.2 ml reaction mixture to all wells;
2. Add 10 ul test compound (or solvent blank) to appropriate wells, mix 20 seconds;
3. Add 50 nanograms of sPLA2 (10 microliters) to appropriate wells;
4. Incubate plate at 40° C. for 30 minutes;
5. Read absorbance of wells at 405 nanometers with an automatic plate reader.
All compounds were tested in triplicate. […] Lack of color development at 405 nanometers evidenced inhibition. […] In all cases, % inhibition measured at 405 nanometers generated by enzyme reactions containing inhibitors relative to the uninhibited control reactions was determined. Each sample was titrated in triplicate and result values were averaged for plotting and calculation of IC50 values.

SMILES | activity in inhibiting sPLA2 (in words)
Cc1c(C(=O)C(N)=O)c2c(OC(C)C(=O)O)cccc2n1Cc1ccccc1 (racemic) [Example 2, dl-2-[[3-(2-Amino-1,2-dioxoethyl)-2-methyl-1-(phenylmethyl)-1H-indol-4-yl]oxy]propanoic Acid] | highly active
Cc1c(C(=O)C(N)=O)c2c(OCC(=O)O)cccc2n1Cc1ccccc1-c1ccccc1 [Example 3, [[3-(2-Amino-1,2-dioxoethyl)-1-([1,1′-biphenyl]-2-ylmethyl)-2-methyl-1H-indol-4-yl]oxy]acetic Acid] | highly active
Cc1c(C(=O)C(N)=O)c2c(OCC(=O)O)cccc2n1Cc1cccc(-c2ccccc2)c1 [Example 4, [[3-(2-Amino-1,2-dioxoethyl)-1-([1,1′-biphenyl]-3-ylmethyl)-2-methyl-1H-indol-4-yl]oxy]acetic Acid] | highly active
Cc1c(C(=O)C(N)=O)c2c(OCC(=O)O)cccc2n1Cc1c(Cl)cccc1Cl [Example 6, [[3-(2-Amino-1,2-dioxoethyl)-1-[(2,6-dichlorophenyl)methyl]-2-methyl-1H-indol-4-yl]oxy]acetic Acid] | highly active
CCc1c(C(=O)C(N)=O)c2c(OCC(=O)O)cccc2n1Cc1cccc(Cl)c1 [Example 10, [[3-(2-Amino-1,2-dioxoethyl)-1-[(3-chlorophenyl)methyl]-2-ethyl-1H-indol-4-yl]oxy]acetic Acid] | highly active
CCCc1c(C(=O)C(N)=O)c2c(OCC(=O)O)cccc2n1Cc1ccccc1-c1ccccc1 [Example 12, [[3-(2-amino-1,2-dioxoethyl)-1-([1,1′-biphenyl]-2-ylmethyl)-2-propyl-1H-indol-4-yl]oxy]acetic Acid] | highly active
NC(=O)C(=O)c1c(C2CC2)n(Cc2ccccc2-c2ccccc2)c2cccc(OCC(=O)O)c12 [Example 14, [[3-(2-Amino-1,2-dioxoethyl)-1-([1,1′-biphenyl]-2-ylmethyl)-2-cyclopropyl-1H-indol-4-yl]oxy]acetic Acid] | highly active
CCc1c(C(=O)C(N)=O)c2cc(OCCCC(=O)O)ccc2n1Cc1ccccc1 [Example 15] | highly active
